Source: paper doi:10.1101/2024.03.19.585814
No constants are given. Whether binding was seen depends on the method and setting. Binding seen in cells or lysates may run through a third protein. Some binding calls cover weakened binding; strength is not graded here.

Protein sequences, listed by entry. Tags and fused reporters are not part of them.
UniProt Q13418: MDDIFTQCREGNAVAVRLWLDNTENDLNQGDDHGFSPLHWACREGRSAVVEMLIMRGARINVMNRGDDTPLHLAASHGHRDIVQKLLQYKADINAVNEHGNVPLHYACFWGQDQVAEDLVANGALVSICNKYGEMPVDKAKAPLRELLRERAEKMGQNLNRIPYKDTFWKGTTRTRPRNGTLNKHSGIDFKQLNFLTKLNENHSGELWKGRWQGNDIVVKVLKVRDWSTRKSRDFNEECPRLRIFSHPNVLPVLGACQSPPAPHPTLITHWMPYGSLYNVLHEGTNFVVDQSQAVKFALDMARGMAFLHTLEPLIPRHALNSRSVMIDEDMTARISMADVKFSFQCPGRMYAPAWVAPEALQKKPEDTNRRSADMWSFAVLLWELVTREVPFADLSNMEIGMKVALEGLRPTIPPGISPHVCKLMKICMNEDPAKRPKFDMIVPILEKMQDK

Target: T1, CD99 (human (endogenous in SU-DIPG04, HSJD-DIPG007, SU-DIPGXIII)) (UniProt P14209)
T1 sequence: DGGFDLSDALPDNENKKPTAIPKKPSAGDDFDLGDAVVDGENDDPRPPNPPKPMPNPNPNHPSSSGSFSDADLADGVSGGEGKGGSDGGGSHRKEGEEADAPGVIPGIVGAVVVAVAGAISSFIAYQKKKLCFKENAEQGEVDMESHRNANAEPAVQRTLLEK
Assay: co-IP

binding: binds
Substance: integrin-linked kinase-1 (ILK1) (from UniProt Q13418 1-452) (enzyme)
